The source of these data is PubChem BioAssay AID488835 (Broad Institute, 2010).

Amino acid sequences for entries named in this document (tags omitted). Residues count along the entry.
UniProt Q9H3R0, 1-420 limits assumed: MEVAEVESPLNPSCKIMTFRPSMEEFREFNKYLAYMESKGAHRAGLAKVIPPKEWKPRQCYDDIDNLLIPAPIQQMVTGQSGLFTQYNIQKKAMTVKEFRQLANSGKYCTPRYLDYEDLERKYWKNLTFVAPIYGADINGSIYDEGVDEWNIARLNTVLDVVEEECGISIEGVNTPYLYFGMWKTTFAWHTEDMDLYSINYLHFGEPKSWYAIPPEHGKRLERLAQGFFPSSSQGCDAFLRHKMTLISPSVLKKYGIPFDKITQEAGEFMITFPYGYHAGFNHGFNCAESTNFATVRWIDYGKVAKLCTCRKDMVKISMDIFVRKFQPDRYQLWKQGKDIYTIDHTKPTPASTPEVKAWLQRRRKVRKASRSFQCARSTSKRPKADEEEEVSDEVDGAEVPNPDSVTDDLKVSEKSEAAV

Screen size: about 1,400 compounds; about 140 (10%) were called active.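 Rule for the calls: active = Half-maximal inhibitory dose from the fit at or below ten times the top valid tested dose; inconclusive = Invalid fit, or flat curve showing 30 to 70% inhibition; inactive = the rest.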 The list shows a part of the results, in another mix than the full data. Measured potencies and affinities stand elsewhere.

The target in this assay is Lysine-specific demethylase 4C (Homo sapiens) (UniProt Q9H3R0). Nature of the assay: inhibition of JMJD2C H3K9me3 demethylation – biochemical, DELFIA europium, cherry-picked samples, dose response (AID 488835).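 Note: signal is the H3K9me2 demethylation product detected by a dimethyl-specific antibody.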 The following applies: GST-JMJD2C(1-420); at 6 µM (top of the series) unless noted.
Turning to `OC[C@H]1O[C@@H]2O[C@H]3[C@H](O)[C@@H](O)[C@@H](O[C@H]4[C@H](O)[C@@H](O)[C@@H](O[C@H]5[C@H](O)[C@@H](O)[C@@H](O[C@H]6[C@H](O)[C@@H](O)[C@@H](O[C@H]7[C@H](O)[C@@H](O)[C@@H](O[C@H]1[C@H](O)[C@H]2O)O[C@@H]7CO)O[C@@H]6CO)O[C@@H]5CO)O[C@@H]4CO)O[C@@H]3CO`, the activity change, negative = inhibition is inactive: 0.497%.
To `Cc1noc(C)c1COc1ccc(C(=O)OC(C)C(=O)Nc2ccc(N3CCOCC3)cc2)cc1` (stereo not given) belongs inactive: 3.93%.
Take `Cc1cccc(NC(=O)C2CCCN(S(=O)(=O)c3c(C)nn(C)c3C)C2)n1` (stereo not given): the activity change, negative = inhibition is inactive: 3.35% [at 1.6 µM].
To `O=C(NCc1ccccc1Br)c1cccc2c1C(=O)c1ccc(N3CCC(Cc4ccccc4)CC3)cc1S2(=O)=O` belongs inactive: -3.9%.
To `Cc1ccc(NC(=O)c2cccc3c2C(=O)N(C2CCCCC2)C3)c(C)c1` belongs inactive: 8.82%.
The result for `O=C(CCN1C(=O)/C(=C/c2ccc(F)cc2)SC1=S)N[C@@H](CO)Cc1ccccc1` reads inactive: 8.35%.
Take `C[C@H](CO)N1C[C@H](C)[C@@H](CN(C)S(=O)(=O)c2cccs2)Oc2c(NC(=O)CCC(F)(F)F)cccc2C1=O`: the activity change, negative = inhibition was inactive: 1.77%.
The result for `Cn1nnnc1SCC(=O)NCC(=O)c1ccccc1` reads inactive: 6.65%; that for `CC(C)NC(=O)N(C)C[C@H]1Oc2ccc(NS(=O)(=O)c3ccccc3)cc2C(=O)N([C@H](C)CO)C[C@H]1C`, inactive: 6.68%; that for `Cc1ccc(CONC(=O)c2cccc([N+](=O)[O-])c2)cc1`, inactive: 6.3%.
To `CC(=O)Nc1ccc(NC(=O)Cn2cnc3c(cnn3C(C)(C)C)c2=O)cc1` belongs inactive: 0.153%.
The result for `Cc1ccc(C(=O)CN2C(=O)C(=O)N(Cc3ccccc3)C2=O)cc1` reads inactive: 1.89%; that for `CC/C(=C/c1sc2ccc(C)cc2[n+]1CCCS(=O)(=O)[O-])SC`, inactive: -0.783%; that for `N#Cc1nc(COc2ccccc2F)oc1NCCCn1ccnc1`, inactive: 1.41%.
Regarding `O=C(/C=C/c1ccc2c(c1)OCO2)NCCS(=O)(=O)N1CCN(c2ccc(F)cc2)CC1`, the activity change, negative = inhibition was inactive: -1.44%.
To `O=C1c2ccc([N+](=O)[O-])cc2C(=O)N1Cc1cccnc1` belongs inactive: 7.52%; to `CSC1=N/C(=C\C=C\c2cccs2)C(=O)S1`, inactive: -5.46%.
The result for `C[C@@H]1CN([C@@H](C)CO)C(=O)c2cc(NC(=O)CCN3CCOCC3)ccc2O[C@@H]1CN(C)C(=O)Nc1ccccc1` reads inactive: -6.36%; that for `COc1cccc(OC)c1C(=O)NC(=S)N1CCOCC1`, inactive: 6.62%.
To `O=C(NCc1cccc(Cl)c1)c1cnn2c1NC(c1ccco1)CC2C(F)(F)F` (stereo not given) belongs inactive: 2.78%.
On to `COc1ccccc1-c1nc(C#N)c(NCc2ccc(F)cc2)o1`, for which the activity change, negative = inhibition is inactive: -3.18%.
The result for `O=C(Cc1cccc2ccccc12)N1CCCc2ccccc21` reads inactive: 0.877%.
With `COc1ccc(S(=O)(=O)NCCCCC(=O)O)cc1C(=O)O`, the activity change, negative = inhibition is inactive: 7.07%.
Regarding `COc1cc(C)c(/C=C(\C#N)C(=O)Nc2ccc(C)cc2)cc1C(C)C`, the activity change, negative = inhibition is inactive: 4.53%.
To `CCOCCc1nnc(NC(=O)c2ccc(OC)c(OC)c2)s1` belongs inactive: 5.7%; to `COC(=O)c1cc(S(=O)(=O)NCCCN2CCCC2=O)cn1C`, inactive: 2.12%.
The result for `Cc1cc(-n2c(SCC(=O)NCc3cccs3)nc3n[nH]c(C)c3c2=N)ccc1Cl` reads inactive: 4.17%.
As to `COc1ccc(CCNC(=O)c2ccc(N3CCCCS3(=O)=O)cc2)cc1OC`, the activity change, negative = inhibition is inactive: 4.22%.
To `C[C@H](CO)N1C[C@H](C)[C@@H](CN(C)Cc2ccc(Cl)c(Cl)c2)Oc2c(NS(=O)(=O)c3cccs3)cccc2C1=O` belongs inactive: -1.37%; to `CCCNC(=S)Nc1ccc(Nc2ccccc2)cc1`, inactive: 1.91%; to `CC(NC(=O)NNC(N)=S)(C(F)(F)F)C(F)(F)F`, inactive: 1.79%.
To `Cc1ccc(S(=O)(=O)NCCC(=O)OCC(=O)Nc2ccccc2Cl)cc1` belongs inactive: 3.94%; to `Cc1nc2cc(CO)ccc2n1C`, inactive: 0.194%; to `O=C1CCN(Cc2ccc(O)cc2)CCN1[C@H](CO)Cc1ccccc1`, inactive: 0.619%.
To `COC(=O)c1cc(NC(=O)CSc2nncn2C)cc(C(=O)OC)c1` belongs inactive: 1.74%; to `CN(C)S(=O)(=O)c1cccc(NC(=S)NCc2ccc3c(c2)OCO3)c1`, inactive: 1.74%; to `C[C@@H]1CN([C@H](C)CO)C(=O)c2cccc(NS(=O)(=O)c3ccccc3)c2O[C@H]1CN(C)C`, inactive: -2.01%.
Turning to `O=C(Cn1cncn1)NCc1cc(F)ccc1F`, the activity change, negative = inhibition is inactive: 2.09%.
To `O=C(NCC1CCCO1)c1ccc2c(=O)n(Cc3cccc(Br)c3)c(=S)[nH]c2c1` (stereo not given) belongs inactive: 10.2%; to `O=C(NCCCN1CCOCC1)c1cccc(S(=O)(=O)N2CCc3ccccc3C2)c1`, inactive: 7.38%.
To `COc1ccccc1-n1cnnc1SCC(=O)Nc1ncc(Cl)cc1Cl` belongs inactive: -7.89% [at 1.6 µM]; to `CCCC(=O)Nc1nn(C)c2nc3c(C)cccc3cc12`, inactive: -4.26%; to `C[C@@H]1CN([C@H](C)CO)C(=O)c2cc(NC(=O)Nc3ccc(C(F)(F)F)cc3)ccc2O[C@H]1CN(C)S(=O)(=O)c1ccccc1`, inactive: 2.71%.
To `CC(C)(C)OC(=O)N[C@@H](Cc1ccccc1)C(=O)N[C@@H](CO)[C@H](O)[C@@H]1C[C@@H]1C(=O)NC1CCCCC1` belongs inactive: -6.41%; to `Cc1cc(C)c(NC(=O)CS(=O)CC(=O)Nc2ccc(F)cc2F)c(C)c1` (stereo not given), inactive: 0.49% [at 1.6 µM].
In the case of `CC(C)N(C(=O)[C@H]1CC(CC(=O)NCc2cccc(C(F)(F)F)c2)C(=O)N2CCc3c([nH]c4ccccc34)[C@]12C)C(C)C` (stereo not given in full), the activity change, negative = inhibition was inactive: 3.1%.
To `CC(O)CNc1nc2ccccc2n1CC(=O)NC12CC3CC(CC(C3)C1)C2` (stereo not given) belongs inactive: 2.35%.
The result for `O=C(NCc1ccccn1)c1ccc(OC2CCN(Cc3cccs3)CC2)cc1` reads inactive: 0.274%; that for `CC(=O)c1sc(NC(=O)c2ccc(C)cc2)nc1C`, inactive: 1.55%; that for `CCN(CC)C(CNS(=O)(=O)c1ccc(Cl)cc1)c1ccccc1` (stereo not given), inactive: -2.47%.
